Experimental data: the supplement of paper PMC12823440, “Inhibitors supercharge kinase turnover through native proteolytic circuits” (Nature, 2025)
Where a name gives a salt, the structure may show the parent alone. The list shows a part of the results. The calls rarely recur for the same compound in another form.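 Kinases, fused to nanoluciferase, were expressed in K562 cells; luminescence was measured every 4 h from 2 to 18 h as percent of control (DMSO = 100%, positive control = 0%). A time point is decreased if signal falls significantly (2 sigma). Hits were called by the authors by a rule that is not shown; the count of time points alone does not decide it.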

The chains behind the UniProt entries cited, without tags or fusion partners. Where a name states a change or a piece, a line headed by the entry shows the natural chain unless it says otherwise.
UniProt Q00534, whole entry: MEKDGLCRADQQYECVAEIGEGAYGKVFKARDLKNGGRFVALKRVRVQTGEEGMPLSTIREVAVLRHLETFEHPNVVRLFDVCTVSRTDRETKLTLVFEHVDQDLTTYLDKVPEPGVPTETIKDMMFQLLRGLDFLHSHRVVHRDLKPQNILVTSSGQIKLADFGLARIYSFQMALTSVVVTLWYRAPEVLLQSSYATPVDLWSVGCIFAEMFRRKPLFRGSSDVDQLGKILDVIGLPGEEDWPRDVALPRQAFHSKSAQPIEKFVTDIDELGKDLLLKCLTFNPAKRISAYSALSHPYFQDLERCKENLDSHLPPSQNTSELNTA
UniProt P50613: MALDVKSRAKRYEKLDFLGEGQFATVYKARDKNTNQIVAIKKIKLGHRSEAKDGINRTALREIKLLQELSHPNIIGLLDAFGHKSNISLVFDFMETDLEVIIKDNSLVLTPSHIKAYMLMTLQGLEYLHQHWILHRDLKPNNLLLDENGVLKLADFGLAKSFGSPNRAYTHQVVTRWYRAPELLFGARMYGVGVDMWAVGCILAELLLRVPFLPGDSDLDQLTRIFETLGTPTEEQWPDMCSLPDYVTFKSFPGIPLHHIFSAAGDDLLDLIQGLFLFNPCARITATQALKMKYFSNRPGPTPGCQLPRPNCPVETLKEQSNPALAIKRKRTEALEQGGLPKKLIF

Target: CDK6 (UniProt Q00534)
Assay: kinase-Nluc reporter destabilization hit call (1 = scored as downregulated) (binary); higher = compound decreases kinase abundance
Details: K562; 2-18 h

SMILES | kinase-Nluc reporter destabilization hit call
COc1cc(C(=O)NC2CCN(C)CC2)ccc1Nc1ncc2c(n1)N(C1CCCC1)CC(F)(F)C(=O)N2C (10 µM) | inactive: 0
CCN1CCN(c2ccc(Nc3cc(N(C)C(=O)Nc4c(Cl)c(OC)cc(OC)c4Cl)ncn3)cc2)CC1 [Infigratinib] (10 µM) | inactive: 0
CN1CCN(S(=O)(=O)c2ccc(-c3cnc(N)c(C(=O)Nc4cccnc4)n3)cc2)CC1 (10 µM) | inactive: 0
Cc1cccc([C@@H](CO)NC(=O)[C@@H](C)N2Cc3ccc(-c4nc(NC5CCOCC5)ncc4Cl)cc3C2=O)c1 [ERK1/2 inhibitor 1] (10 µM) | inactive: 0
COc1cc(CCc2cc(-c3nc4ccc(N5CCN(C)CC5)cc4[nH]3)n[nH]2)cc(OC)c1 (10 µM) | inactive: 0
Cc1cc(CS(=O)(=O)c2ccccc2)cc(OCc2ccc(CN3CCC[C@@H]3CO)cc2)c1 [PF-543 (Citrate)] (10 µM) | inactive: 0
Cc1[nH]c(/C=C2\C(=O)Nc3ccc(S(=O)(=O)Cc4c(Cl)cccc4Cl)cc32)c(C)c1C(=O)N1CCC[C@@H]1CN1CCCC1 (2.5 µM) | inactive: 0
Cc1cc(F)c(C(=O)Nc2cccc(-c3nncn3C(C)C)n2)cc1-n1cnc(C2CC2)c1 [Selonsertib] (10 µM) | inactive: 0
COCCOc1cc2nccc(Nc3n[nH]c(C)c3C)c2cc1S(=O)(=O)C(C)(C)C [RIP2 kinase inhibitor 2] (2.5 µM) | inactive: 0

Target: CDK7 (UniProt P50613)
Assay: as above
Details: K562; 2-18 h

SMILES | kinase-Nluc reporter destabilization hit call
N#Cc1ccc2[nH]c(O)c(-c3ccc(CN4CCOCC4)cn3)c2c1 (10 µM) | inactive: 0
O=C1NCCc2[nH]c(-c3ccnc(-c4cnc5ccccc5c4)c3)cc21 (10 µM) | inactive: 0
Oc1cc(O)cc(/C=C/c2ccc(O)c(O)c2)c1 [Piceatannol] (10 µM) | inactive: 0
O=C(NOC[C@H](O)CO)c1ccc(F)c(F)c1Nc1ccc(I)cc1F (2.5 µM) | inactive: 0
Cn1c(=O)n(-c2ccc(C(C)(C)C#N)cc2)c2c3cc(-c4cnc5ccccc5c4)ccc3ncc21 [Dactolisib (Tosylate)] (10 µM) | inactive: 0
CCCCNc1ncc(-c2ccc(CN3CCOCC3)cn2)c(NC2CCC(O)CC2)n1 (centres undefined) (10 µM) | inactive: 0
O=C(Nc1cc(C(F)(F)F)ccc1N1CCN(Cc2ccccn2)CC1)c1ccc(-c2ccncc2)o1 (10 µM) | inactive: 0
CC[C@H](CO)Nc1nc(NCc2ccccc2)c2ncn(C(C)C)c2n1 [Seliciclib] (10 µM) | inactive: 0
COC(=O)c1ccc2c(C(=Nc3ccc(N(C)C(=O)CN4CCN(C)CC4)cc3)c3ccccc3)c(O)[nH]c2c1 [Nintedanib] (2.5 µM) | inactive: 0
COc1cc(F)cc([C@@H](CO)NC(=O)[C@@H](C)N2Cc3ccc(-c4nc(NC5CCOCC5)ncc4Cl)cc3C2=O)c1 [ERK1/2 inhibitor 2] (10 µM) | inactive: 0
CC(C)c1ccc2oc3nc(N)c(C(=O)O)cc3c(=O)c2c1 [Amlexanox] (10 µM) | inactive: 0
CN(C)C[C@@H]1CCn2cc(c3ccccc32)C2=C(C(=O)NC2=O)c2cn(c3ccccc23)CCO1 [Ruboxistaurin (hydrochloride)] (10 µM) | inactive: 0
CCc1nc(-c2cccc(C)c2)c(-c2ccnc(NC(=O)c3ccccc3)c2)s1 (10 µM) | inactive: 0
CCOc1cc2ncc(-c3cc(N)nc(F)c3)n2cc1S(=O)(=O)C(C)(C)C (10 µM) | inactive: 0
CC(C)(/C=C(\C#N)C(=O)N1CCC[C@@H](n2nc(-c3ccc(Oc4ccccc4)cc3F)c3c(N)ncnc32)C1)N1CCN(C2COC2)CC1 (2.5 µM) | inactive: 0
CCCn1cnc2c(NCc3ccccc3)nc(NC(CC)CO)nc21 (centres undefined) [Ca2+ channel agonist 1] (2.5 µM) | inactive: 0
Brc1c(Br)c(Br)c2n[nH]nc2c1Br (10 µM) | inactive: 0
Nc1nc(OCC2CCCCC2)c2[nH]cnc2n1 (10 µM) | inactive: 0
COc1ccc(Oc2cc(NCCC(F)(F)F)c3ncc(-c4ccc(C(=O)NC5CC5)c(C)c4)n3n2)c(F)c1F (2.5 µM) | inactive: 0
COc1cc(C(=O)NC2CCN(C)CC2)c(F)cc1Nc1ncc2c(n1)N(C1CCCC1)CC(F)(F)C(=O)N2C [TAK-960 (dihydrochloride)] (2.5 µM) | inactive: 0

SMILES | kinase-Nluc reporter destabilization hit call
COc1ccc(NC(=O)N2CCN(c3nc(N)nc4c3cnn4C)[C@@H](C)C2)c(C)c1 (10 µM) | inactive: 0
O=C(Nc1ccc(-c2ccnc(Nc3ccc(N4CCOCC4)cc3)n2)cc1)C1CCCN1 (centres undefined) (10 µM) | inactive: 0
COc1nccc(-c2c(-c3ccc(F)cc3)ncn2C2CCC(O)CC2)n1 (centres undefined) (10 µM) | inactive: 0
NC(=O)c1ccc2nc(-c3ccc(Oc4ccc(Cl)cc4)cc3)[nH]c2c1 (10 µM) | inactive: 0
Cc1cc(C)c(/C=C2\C(=O)Nc3ccccc32)[nH]1 [Semaxinib] (10 µM) | inactive: 0
COc1ccc(COc2ccc(Cc3cnc(N)nc3N)cc2OC)cc1 (10 µM) | inactive: 0
CN1CCN(c2ccc(Nc3cc(-c4cccc(-n5ccc6cc(C7CC7)cc(F)c6c5=O)c4CO)cn(C)c3=O)nc2)CC1 (2.5 µM) | inactive: 0
C=CC(=O)N1CCC[C@@H](n2nc(-c3ccc(Oc4ccccc4)cc3)c(C(N)=O)c2N)C1 [Btk inhibitor 2] (10 µM) | inactive: 0
Cc1c(NC(=O)c2cc3c(s2)CCCC3)cccc1-c1cn(C)c(=O)c(Nc2ccc([C@@H]3C(=O)N(C)CCN3C)cc2)n1 (10 µM) | inactive: 0
CCOc1ccn(-c2ccc(F)cc2)c(=O)c1C(=O)Nc1ccc(Oc2ccnc(N)c2Cl)c(F)c1 (10 µM) | active: 1
CCn1c(=O)c2cc(C(N)=O)c(N)nc2n(C2CC2)c1=O (10 µM) | inactive: 0
COc1cc(C(=O)NC2CCN(C)CC2)ccc1Nc1ncc2c(n1)N(C1CCCC1)CC(F)(F)C(=O)N2C (10 µM) | inactive: 0
CCN1CCN(c2ccc(Nc3cc(N(C)C(=O)Nc4c(Cl)c(OC)cc(OC)c4Cl)ncn3)cc2)CC1 [Infigratinib] (10 µM) | inactive: 0
CN1CCN(S(=O)(=O)c2ccc(-c3cnc(N)c(C(=O)Nc4cccnc4)n3)cc2)CC1 (10 µM) | inactive: 0
Cc1cccc([C@@H](CO)NC(=O)[C@@H](C)N2Cc3ccc(-c4nc(NC5CCOCC5)ncc4Cl)cc3C2=O)c1 [ERK1/2 inhibitor 1] (10 µM) | inactive: 0
COc1cc(CCc2cc(-c3nc4ccc(N5CCN(C)CC5)cc4[nH]3)n[nH]2)cc(OC)c1 (10 µM) | inactive: 0
Cc1cc(CS(=O)(=O)c2ccccc2)cc(OCc2ccc(CN3CCC[C@@H]3CO)cc2)c1 [PF-543 (Citrate)] (10 µM) | inactive: 0
Cc1[nH]c(/C=C2\C(=O)Nc3ccc(S(=O)(=O)Cc4c(Cl)cccc4Cl)cc32)c(C)c1C(=O)N1CCC[C@@H]1CN1CCCC1 (2.5 µM) | inactive: 0
Cc1cc(F)c(C(=O)Nc2cccc(-c3nncn3C(C)C)n2)cc1-n1cnc(C2CC2)c1 [Selonsertib] (10 µM) | inactive: 0
COCCOc1cc2nccc(Nc3n[nH]c(C)c3C)c2cc1S(=O)(=O)C(C)(C)C [RIP2 kinase inhibitor 2] (2.5 µM) | inactive: 0
